PubChem BioAssay AID1224828 | NIAID, 2016

Aim: 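Regulators linking TLR4 signalling to p65 nuclear translocation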 (primary screen)
System: mouse RAW264.7 G9 macrophage reporter cells (GFP-p65, Tnf promoter-mCherry)
Knock-down reagent: siRNA pool against mouse genes, 100 nM
Time to read-out: 2 days siRNA transfection, then 40 min LPS before fixation
Challenge: LPS (Salmonella minnesota R595) at 10 ng/ml
Measured: 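Microscopy ratio of nuclear to perinuclear-ring GFP-p65 signal, scaled to the plate median; gene score is the average of two replicate robust z-scores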
Reading the numbers: p65 translocation robust z-score: higher = more nuclear NF-kappaB p65 after LPS than the plate median; nuclear/cytoplasmic p65 ratio: higher = more nuclear NF-kappaB p65
Rule for the call: 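Active if robust z is above 3.3 (negative regulators) or below -1.56, the Tlr4 control median (positive regulators); activity score 50 or more; control wells not called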
Calls: active = hit (p65 shift raised or lowered); inactive = no clear change
Shown is one part, drawn at random, of about 17,000 reagents tested. 762 of all reagents (4.5%) count as active. 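Active calls include both raised and lowered p65 entry, mostly lowered; wells with fewer than 50 cells lack a z-score.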 Raw values are not corrected between plates. Unmarked entries are inactive. No sequences are given here.

| Target gene | p65 translocation robust z-score | nuclear/cytoplasmic p65 ratio, rep 1 | nuclear/cytoplasmic p65 ratio, rep 2 | low cell count flag |
| --- | --- | --- | --- | --- |
| Abcb4 (ATP-binding cassette, sub-family B member 4) | -0.75 | 1.51 | 1.49 | enough cells to score |
| Zfp239 (zinc finger protein 239) | – | 1.34 | 1.01 | fewer than 50 cells per well; well left out of scoring |
| Map4k2 (mitogen-activated protein kinase kinase kinase kinase 2) | – | 1.56 | 1.33 | fewer than 50 cells per well; well left out of scoring |
| B230220N19Rik (RIKEN cDNA B230220N19 gene) | 0.82 | 1.53 | 1.82 | enough cells to score |
| Ogt | 0.52 | 1.39 | 1.46 | enough cells to score |
| Dctn6 (dynactin 6) | 1.14 | 1.76 | 1.69 | enough cells to score |
| Sltm (SAFB-like, transcription modulator) | 0.88 | 1.48 | 1.63 | enough cells to score |
| Rtl6 (retrotransposon Gag like 6) | -1.19 | 1.29 | 1.34 | enough cells to score |
| Orc1 (origin recognition complex, subunit 1) | 0.04 | 1.53 | 1.18 | enough cells to score |
| Mtr (5-methyltetrahydrofolate-homocysteine methyltransferase) | -0.05 | 1.31 | 1.45 | enough cells to score |
| Aip (aryl-hydrocarbon receptor-interacting protein) | 1.74 | 1.68 | 2.07 | enough cells to score |
| Nbeal1 (neurobeachin like 1) | 0 | 1.28 | 1.53 | enough cells to score |
| Adcy7 (adenylate cyclase 7) | 0.47 | 1.61 | 1.83 | enough cells to score |
| Lcp2 (lymphocyte cytosolic protein 2) | 0.11 | 1.91 | 1.39 | enough cells to score |
| C530043K16Rik (RIKEN cDNA C530043K16 gene) | 0.62 | 1.56 | 1.57 | enough cells to score |
| F2rl1 (F2R like trypsin receptor 1) | -1.32 | 1.31 | 1.42 | enough cells to score |
| Or5p76 (olfactory receptor family 5 subfamily P member 76) | -1.6 (active) | 1.23 | 1.24 | enough cells to score |
| Slc5a9 | 0.45 | 1.65 | 1.78 | enough cells to score |
| Slc35b4 | 0.04 | 1.4 | 1.52 | enough cells to score |
| Agbl5 (ATP/GTP binding protein-like 5) | 1.16 | 1.68 | 1.61 | enough cells to score |
| Katnal1 (katanin p60 subunit A-like 1) | 0.82 | 1.78 | 1.72 | enough cells to score |
| Zbtb7c (zinc finger and BTB domain containing 7C) | 0.06 | 1.4 | 1.59 | enough cells to score |
| Opcml (opioid binding protein/cell adhesion molecule-like) | -1 | 1.21 | 1.14 | enough cells to score |
| Bnip3l (BCL2/adenovirus E1B interacting protein 3-like) | 0.03 | 1.64 | 1.6 | enough cells to score |
| Ppp1r2 (protein phosphatase 1, regulatory inhibitor subunit 2) | 0.18 | 1.49 | 1.46 | enough cells to score |
| Tsga13 (testis specific gene A13) | 0.8 | 1.44 | 1.37 | enough cells to score |
| Rassf1 (Ras association (RalGDS/AF-6) domain family member 1) | -0.94 | 1.4 | 1.36 | enough cells to score |
| Glrp1 (glutamine repeat protein 1) | 1.2 | 1.77 | 1.63 | enough cells to score |

Called active, of those listed so far:
| Target gene | p65 translocation robust z-score | nuclear/cytoplasmic p65 ratio, rep 1 | nuclear/cytoplasmic p65 ratio, rep 2 | low cell count flag |
| --- | --- | --- | --- | --- |
| Or5p76 (olfactory receptor family 5 subfamily P member 76) | -1.6 (active) | 1.23 | 1.24 | enough cells to score |

Continued:
| Target gene | p65 translocation robust z-score | nuclear/cytoplasmic p65 ratio, rep 1 | nuclear/cytoplasmic p65 ratio, rep 2 | low cell count flag |
| --- | --- | --- | --- | --- |
| Adcy8 (adenylate cyclase 8) | 0.33 | 1.6 | 1.8 | enough cells to score |
| Gask1b (golgi associated kinase 1B) | -0.81 | 1.36 | 1.4 | enough cells to score |
| Enkd1 (enkurin domain containing 1) | – | 1.16 | 1.22 | fewer than 50 cells per well; well left out of scoring |
| Fgfr1 (fibroblast growth factor receptor 1) | – | 1.56 | 1.24 | fewer than 50 cells per well; well left out of scoring |
| Tprg1 (transformation related protein 63 regulated 1) | -0.06 | 1.34 | 1.47 | enough cells to score |
| Plcg1 (phospholipase C, gamma 1) | 1.42 | 1.66 | 1.62 | enough cells to score |
| Pcdh20 (protocadherin 20) | 0.15 | 1.4 | 1.31 | enough cells to score |
| Elp5 (elongator acetyltransferase complex subunit 5) | -0.24 | 1.49 | 1.47 | enough cells to score |
| Or5w1 (olfactory receptor family 5 subfamily W member 1) | 0.56 | 1.81 | 1.6 | enough cells to score |
| Cxcr3 (C-X-C motif chemokine receptor 3) | 1.34 | 1.63 | 1.85 | enough cells to score |
| Pno1 (partner of NOB1 homolog) | – | 1.61 | 1.51 | fewer than 50 cells per well; well left out of scoring |
| Msh2 (mutS homolog 2) | 1.67 | 1.71 | 1.51 | enough cells to score |
| Lgr5 (leucine rich repeat containing G protein coupled receptor 5) | -0.54 | 1.43 | 1.5 | enough cells to score |
| Chia1 (chitinase, acidic 1) | -0.19 | 1.58 | 1.58 | enough cells to score |
| Slc25a16 | -0.09 | 1.32 | 1.31 | enough cells to score |
| Ptprs (protein tyrosine phosphatase receptor type S) | 0.26 | 1.55 | 1.56 | enough cells to score |
| Aif1 (allograft inflammatory factor 1) | 1.32 | 1.7 | 1.93 | enough cells to score |
| Nav2 (neuron navigator 2) | 0.24 | 1.39 | 1.3 | enough cells to score |
| Atp5f1b (ATP synthase F1 subunit beta) | 0.72 | 1.68 | 1.64 | enough cells to score |
| Trmt2a (TRM2 tRNA methyltransferase 2A) | 1.28 | 1.76 | 1.58 | enough cells to score |
| Teddm1a (transmembrane epididymal protein 1A) | 0.28 | 1.7 | 1.44 | enough cells to score |
| Cdk5 (cyclin dependent kinase 5) | -0.08 | 1.55 | 1.48 | enough cells to score |
| Adgrf1 (adhesion G protein-coupled receptor F1) | 0.74 | 1.56 | 1.74 | enough cells to score |
| Spata31f3 (spermatogenesis associated 31 subfamily F member 3) | 0.24 | 1.49 | 1.53 | enough cells to score |
| Rab30 (RAB30, member RAS oncogene family) | -0.63 | 1.44 | 0.987 | enough cells to score |
| Erbb2 (erb-b2 receptor tyrosine kinase 2) | -0.29 | 1.56 | 1.41 | enough cells to score |
| Irak2 (interleukin-1 receptor-associated kinase 2) | -0.75 | 1.6 | 1.26 | enough cells to score |
| Stk16 (serine/threonine kinase 16) | -0.7 | 1.44 | 1.29 | enough cells to score |
| Cyth4 (cytohesin 4) | -0.54 | 1.38 | 1.38 | enough cells to score |
| Zfp677 (zinc finger protein 677) | 0.19 | 1.5 | 1.45 | enough cells to score |
| Smad4 (SMAD family member 4) | 0.25 | 1.51 | 1.67 | enough cells to score |
